{"source": "PubChem BioAssay AID504764 (Drosophila RNAi Screening Center, 2011)", "screen": "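Genome-wide screen for regulators of Notch-driven gene expression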 (primary screen)", "system": "Drosophila Kc167 cells", "knock-down reagent": "long dsRNA against Drosophila genes", "timing": "about 5 days (4 days dsRNA, then 24 h after transfection)", "treatment": "transfection of constitutively active membrane-tethered Notch lacking the extracellular domain, read 24 h later", "detection": "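Firefly luciferase from an E(spl)m3 reporter with active Notch, plus control-promoter and uninduced reporter wells for normalisation; unnormalised counts, duplicate wells a and b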", "scale": "induced reporter light, run 1, well a and induced reporter light, run 1, well b: higher = more light from the Notch target reporter with active Notch; control promoter light, run 1, well a and control promoter light, run 1, well b: higher = more light from the viral control promoter (cell number, transfection, viability); uninduced reporter light, run 1, well a: higher = more light from the Notch target reporter without active Notch", "call rule": "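Wells with low control signal or poorly matching duplicates excluded; duplicates averaged; per source plate, z beyond ±2 for induced/control log2 ratio or beyond ±1.8 for induced/uninduced marks a hit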", "meaning of the calls": "active = modifier hit (raised or lowered Notch signal); inactive = not a hit", "note": "The screen tested about 22,000 reagents; below is a random part of those that have a named target and a result. Over the whole deposit, 403 (1.9%) got an active call. 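Unnormalised raw counts per well; ratio z-scores behind the hit calls and whether each hit raises or lowers signal are not deposited.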 Entries without a mark were called inactive. A plus sign joins genes that one reagent is predicted to hit. The record does not give: the amount of reagent."}
{"gene knocked down": "Plod (procollagen lysyl hydroxylase)", "amplicon": "DRSC10601", "induced reporter light, run 1, well a": 1.10e5, "induced reporter light, run 1, well b": 1.04e5, "control promoter light, run 1, well a": 72700, "control promoter light, run 1, well b": 34965, "uninduced reporter light, run 1, well a": 10938}
{"gene knocked down": "Plod (procollagen lysyl hydroxylase)", "amplicon": "DRSC10602", "induced reporter light, run 1, well a": 2.31e5, "induced reporter light, run 1, well b": 1.79e5, "control promoter light, run 1, well a": 3.85e5, "control promoter light, run 1, well b": 3.08e5, "uninduced reporter light, run 1, well a": 12215}
{"gene knocked down": "RhoGAP100F (Rho GTPase activating protein at 100F)", "amplicon": "DRSC15409", "induced reporter light, run 1, well a": 1.79e5, "induced reporter light, run 1, well b": 2.13e5, "control promoter light, run 1, well a": 2.85e5, "control promoter light, run 1, well b": 2.84e5, "uninduced reporter light, run 1, well a": 14042}
{"gene knocked down": "pan (pangolin)", "amplicon": "DRSC17176", "induced reporter light, run 1, well a": 1.18e5, "induced reporter light, run 1, well b": 1.42e5, "control promoter light, run 1, well a": 1.50e5, "control promoter light, run 1, well b": 1.79e5, "uninduced reporter light, run 1, well a": 11515}
{"gene knocked down": "moody", "amplicon": "DRSC18515", "induced reporter light, run 1, well a": 89035, "induced reporter light, run 1, well b": 1.13e5, "control promoter light, run 1, well a": 1.68e5, "control promoter light, run 1, well b": 1.76e5, "uninduced reporter light, run 1, well a": 8740}
{"gene knocked down": "CG4049", "amplicon": "DRSC04443", "induced reporter light, run 1, well a": 1.89e5, "induced reporter light, run 1, well b": 1.65e5, "control promoter light, run 1, well a": 1.30e5, "control promoter light, run 1, well b": 1.35e5, "uninduced reporter light, run 1, well a": 12765}
{"gene knocked down": "CG33309", "amplicon": "DRSC01421", "induced reporter light, run 1, well a": 1.32e5, "induced reporter light, run 1, well b": 1.30e5, "control promoter light, run 1, well a": 1.06e5, "control promoter light, run 1, well b": 89300, "uninduced reporter light, run 1, well a": 10520}
{"gene knocked down": "UBL3 (Ubiquitin like 3)", "amplicon": "DRSC20298", "induced reporter light, run 1, well a": 44475, "induced reporter light, run 1, well b": 46390, "control promoter light, run 1, well a": 41065, "control promoter light, run 1, well b": 35620, "uninduced reporter light, run 1, well a": 10065}
{"gene knocked down": "Pp1-87B (Protein phosphatase 1 at 87B)", "amplicon": "DRSC16794", "induced reporter light, run 1, well a": 55095, "induced reporter light, run 1, well b": 49690, "control promoter light, run 1, well a": 32430, "control promoter light, run 1, well b": 26705, "uninduced reporter light, run 1, well a": 5305}
{"gene knocked down": "Culd (CUB and LDLa domain)", "amplicon": "DRSC10262", "induced reporter light, run 1, well a": 1.14e5, "induced reporter light, run 1, well b": 98580, "control promoter light, run 1, well a": 94845, "control promoter light, run 1, well b": 44095, "uninduced reporter light, run 1, well a": 10970}
{"gene knocked down": "RpS15Ab + RpS15Aa", "amplicon": "DRSC06129", "induced reporter light, run 1, well a": 9855, "induced reporter light, run 1, well b": 9305, "control promoter light, run 1, well a": 13815, "control promoter light, run 1, well b": 11935, "uninduced reporter light, run 1, well a": 710}
{"gene knocked down": "RpS15Ab + RpS15Aa", "amplicon": "DRSC19831", "induced reporter light, run 1, well a": 9095, "induced reporter light, run 1, well b": 11345, "control promoter light, run 1, well a": 14615, "control promoter light, run 1, well b": 14505, "uninduced reporter light, run 1, well a": 440}
{"gene knocked down": "Ccdc114 (Coiled-coil domain containing protein 114)", "amplicon": "DRSC15025", "induced reporter light, run 1, well a": 2.19e5, "induced reporter light, run 1, well b": 2.31e5, "control promoter light, run 1, well a": 2.06e5, "control promoter light, run 1, well b": 2.18e5, "uninduced reporter light, run 1, well a": 16640}
{"gene knocked down": "CG4238", "amplicon": "DRSC00090", "induced reporter light, run 1, well a": 1.10e5, "induced reporter light, run 1, well b": 1.09e5, "control promoter light, run 1, well a": 1.54e5, "control promoter light, run 1, well b": 1.67e5, "uninduced reporter light, run 1, well a": 7545}
{"gene knocked down": "CG4238", "amplicon": "DRSC00644", "induced reporter light, run 1, well a": 1.52e5, "induced reporter light, run 1, well b": 1.45e5, "control promoter light, run 1, well a": 1.27e5, "control promoter light, run 1, well b": 85320, "uninduced reporter light, run 1, well a": 10240}
{"gene knocked down": "CG15414", "amplicon": "DRSC00429", "induced reporter light, run 1, well a": 1.52e5, "induced reporter light, run 1, well b": 1.28e5, "control promoter light, run 1, well a": 1.41e5, "control promoter light, run 1, well b": 1.45e5, "uninduced reporter light, run 1, well a": 9265}
{"gene knocked down": "CG30122", "amplicon": "DRSC06776", "induced reporter light, run 1, well a": 94355, "induced reporter light, run 1, well b": 91855, "control promoter light, run 1, well a": 1.99e5, "control promoter light, run 1, well b": 2.02e5, "uninduced reporter light, run 1, well a": 7160}
{"gene knocked down": "CG30122", "amplicon": "DRSC06935", "induced reporter light, run 1, well a": 70780, "induced reporter light, run 1, well b": 78365, "control promoter light, run 1, well a": 1.15e5, "control promoter light, run 1, well b": 1.27e5, "uninduced reporter light, run 1, well a": 6050}
{"gene knocked down": "meigo (medial glomeruli)", "amplicon": "DRSC15877", "induced reporter light, run 1, well a": 1.88e5, "induced reporter light, run 1, well b": 1.79e5, "control promoter light, run 1, well a": 2.05e5, "control promoter light, run 1, well b": 2.02e5, "uninduced reporter light, run 1, well a": 13142}
{"gene knocked down": "Gr93a (Gustatory receptor 93a)", "amplicon": "DRSC14593", "induced reporter light, run 1, well a": 1.98e5, "induced reporter light, run 1, well b": 1.76e5, "control promoter light, run 1, well a": 2.16e5, "control promoter light, run 1, well b": 1.96e5, "uninduced reporter light, run 1, well a": 13142}
{"gene knocked down": "pen-2 (presenilin enhancer)", "amplicon": "DRSC05722", "induced reporter light, run 1, well a": 92445, "induced reporter light, run 1, well b": 1.08e5, "control promoter light, run 1, well a": 1.12e5, "control promoter light, run 1, well b": 95955, "uninduced reporter light, run 1, well a": 8125}
{"gene knocked down": "jdp", "amplicon": "DRSC16975", "induced reporter light, run 1, well a": 64785, "induced reporter light, run 1, well b": 70820, "control promoter light, run 1, well a": 79125, "control promoter light, run 1, well b": 62760, "uninduced reporter light, run 1, well a": 4855}
{"gene knocked down": "CG9760", "amplicon": "DRSC11101", "induced reporter light, run 1, well a": 69690, "induced reporter light, run 1, well b": 76800, "control promoter light, run 1, well a": 92290, "control promoter light, run 1, well b": 77135, "uninduced reporter light, run 1, well a": 4555}
{"gene knocked down": "CG32846", "amplicon": "DRSC08012", "induced reporter light, run 1, well a": 1.74e5, "induced reporter light, run 1, well b": 1.88e5, "control promoter light, run 1, well a": 1.96e5, "control promoter light, run 1, well b": 1.97e5, "uninduced reporter light, run 1, well a": 13920}
